Protein sequences, listed by entry. Tags and fused reporters are not part of them. Lines headed by an entry give the natural chain unless they say otherwise; changes in a name come on top.
UniProt Q13519: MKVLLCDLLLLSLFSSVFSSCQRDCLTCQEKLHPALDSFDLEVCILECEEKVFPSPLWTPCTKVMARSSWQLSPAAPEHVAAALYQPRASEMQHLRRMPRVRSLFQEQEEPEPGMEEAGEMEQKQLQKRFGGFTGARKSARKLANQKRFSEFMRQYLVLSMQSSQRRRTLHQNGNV

According to PMC5382891 (Scientific Reports, 2017):

Test: peptide synthesis
Conditions: whole synthesis, 220 nm

Question: Which “final HPLC purity” value does the source give for “N/OFQ(1-11)-NH2 (FGGFTGARKSA; Nociceptin C-terminal amide; UniProt Q13519 130-140, looked up, fragment)” here?
Answer: >99.9%
